The test system of the test is CD2F1 mice, L1210 leukemia ip, survival T/C. Briefly: NCI In Vivo Anticancer Drug Screen. Data for tumor model L1210 Leukemia (intraperitoneal) in CD2F1 (CDF1) mice. The note with it: higher T/C = longer survival. A digest of the protocol: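 Tumor-bearing mice (transplanted tumor) were split into treated and vehicle control groups, and the measured endpoint of each treated group was divided by that of its vehicle controls.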

Where [1] appears, read: T/C endpoint: mean survival time, dose: 100.0 mg/kg/injection, schedule: Q01DX009 (ip), vehicle: Klucel (hydroxypropylcellulose) (HPC).
Where [2] appears, read: T/C endpoint: mean survival time, dose: 200.0 mg/kg/injection, schedule: Q01DX009 (ip), vehicle: saline with Tween-80.
[3] abbreviates: T/C endpoint: mean survival time, dose: 400.0 mg/kg/injection, schedule: Q04DX003 (ip), vehicle: saline with Tween-80.
Where [4] appears, read: T/C endpoint: mean survival time, dose: 200.0 mg/kg/injection, schedule: Q04DX003 (ip), vehicle: saline with Tween-80.
[5] abbreviates: T/C endpoint: mean survival time, dose: 50.0 mg/kg/injection, schedule: Q01DX009 (ip), vehicle: other.
Setting [6] is: T/C endpoint: mean survival time, dose: 100.0 mg/kg/injection, schedule: Q04DX003 (ip), vehicle: other.
[7] abbreviates: T/C endpoint: mean survival time, dose: 25.0 mg/kg/injection, schedule: Q01DX009 (ip), vehicle: Klucel (hydroxypropylcellulose) (HPC).

The list shows only some results of the screen, not a fair sample: it gathers tests that were run many times, whatever their T/C, doses with no T/C, and many T/C values between a quarter and a half above the control. Other doses and runs of a compound stand elsewhere. T/C is the treated group as % of the vehicle group. Some doses have a count of surviving animals in place of a T/C: the source holds a T/C of zero for them, seemingly a mark for toxic or unscored doses. Some doses without a T/C left all or most animals alive at the check, yet need not have been tolerated: survival well below the control is almost never listed, so the zero probably covers shortened survival too. Counts of survivors are from the toxicity check (mostly the fifth day) where no day follows; animals may have died later. Schedules are NCI's codes, read here as Q, the interval in days (D) or hours (H), X, the number of doses. Some doses were run more than once; the results are listed from low to high. For survival time, this PubChem deposit counts one and a half times the control or more as active, and values a quarter to a half above the control carry no call in these data; other NCI protocols may use other cut-offs. Some T/C values are followed by the survivors on the day toxicity was checked, most often the fifth; where none is given, no animal had died by that day.

With `Cc1cccc(C)c1N=C(c1ccccc1)N(O)c1ccccc1`, the survivor count is, setting by setting: (T/C endpoint: mean survival time, dose: 15.0 mg/kg/injection, schedule: Q01DX001 (ip), vehicle: saline) 1 of 6; (T/C endpoint: mean survival time, dose: 30.0 mg/kg/injection, schedule: Q01DX001 (ip), vehicle: saline) 1 of 6.
Take `CCN(CC)c1ccc2cc(-c3nc4ccccc4n3C)c(=O)oc2c1`: the T/C is 93, 102, 103 % of control (T/C endpoint: mean survival time, dose: 25.0 mg/kg/injection, schedule: Q01DX009 (ip), vehicle: Klucel (hydroxypropylcellulose) (HPC), evaluated on day 30); 94 % of control (T/C endpoint: mean survival time, dose: 25.0 mg/kg/injection, schedule: Q01DX009 (ip), vehicle: Klucel (hydroxypropylcellulose) (HPC), evaluated on day 60); 125 % of control [9 of 10 alive] under setting [1]. Also, the survivor count was 0 of 6 and 3 of 6 under setting [1]; 0 of 10, 0 of 6, 1 of 6 (T/C endpoint: mean survival time, dose: 200.0 mg/kg/injection, schedule: Q01DX009 (ip), vehicle: Klucel (hydroxypropylcellulose) (HPC)).
Consider `COC(=O)Nc1ccc(Cc2ccc(NC(=O)OC)cc2)cc1`, for which the T/C under setting [2] is 143 and 146 % of control.
In the case of `CC(C)(C)OC(=O)NCCCCC(N)C(=O)OC(C)(C)C` (centres undefined), under “T/C endpoint: mean survival time, dose: 400.0 mg/kg/injection, schedule: Q04DX003 (ip), vehicle: saline”, the survivor count is listed as 0 of 6.
With `O=C1C=CC(=O)N1c1ccc([N+](=O)[O-])cc1`, the survivor count reads like this: (T/C endpoint: mean survival time, dose: 50.0 mg/kg/injection, schedule: Q04DX003 (ip), vehicle: Klucel (hydroxypropylcellulose) (HPC)) 0 of 6; (T/C endpoint: mean survival time, dose: 100.0 mg/kg/injection, schedule: Q04DX003 (ip), vehicle: Klucel (hydroxypropylcellulose) (HPC)) 0 of 6; (T/C endpoint: mean survival time, dose: 200.0 mg/kg/injection, schedule: Q04DX003 (ip), vehicle: Klucel (hydroxypropylcellulose) (HPC)) 0 of 6.
For the molecule `O=NN(CCF)C(=O)NC1CCC(NC(=O)N(CCF)N=O)CC1` (centres undefined), the T/C (T/C endpoint: mean survival time, dose: 6.25 mg/kg/injection, schedule: Q01DX009 (ip), vehicle: saline with Tween-80) was 138 % of control. Moreover, the survivor count by setting is: (T/C endpoint: mean survival time, dose: 100.0 mg/kg/injection, schedule: Q01DX009 (ip), vehicle: saline with Tween-80) 3 of 6; under setting [2], 1 of 6.
Regarding `C=CC=O`, the survivor count is 0 of 6 (T/C endpoint: mean survival time, dose: 3.75 mg/kg/injection, schedule: Q01DX009 (ip), vehicle: saline) and 0 of 6 (T/C endpoint: mean survival time, dose: 7.5 mg/kg/injection, schedule: Q01DX009 (ip), vehicle: saline).
As for `Cc1ccc2ccccc2[n+]1[O-]`, the survivor count (T/C endpoint: mean survival time, dose: 200.0 mg/kg/injection, schedule: Q04DX002 (ip), vehicle: saline with Tween-80) is given as 0 of 3 and the survivor count (T/C endpoint: mean survival time, dose: 400.0 mg/kg/injection, schedule: Q04DX002 (ip), vehicle: saline with Tween-80) was 0 of 3.
For the molecule `Oc1cccc2cc3cccc(O)c3c(O)c12`, the survivor count (T/C endpoint: mean survival time, dose: 100.0 mg/kg/injection, schedule: Q01DX001 (ip), vehicle: saline) is listed as 0 of 6; the survivor count (T/C endpoint: mean survival time, dose: 200.0 mg/kg/injection, schedule: Q01DX001 (ip), vehicle: saline) is recorded as 0 of 6; the survivor count (T/C endpoint: mean survival time, dose: 400.0 mg/kg/injection, schedule: Q01DX001 (ip), vehicle: saline) is 0 of 6.
For `c1ccc2c([Si](O[Si](c3cccc4ccccc34)C3CCCCC3)C3CCCCC3)cccc2c1`, the survivor count under setting [3] is 6 of 6.
On to `CC1C(N)CC2CC1C2(C)C` (centres undefined), for which the survivor count by setting is: (T/C endpoint: mean survival time, dose: 100.0 mg/kg/injection, schedule: Q04DX002 (ip), vehicle: saline) 1 of 3; (T/C endpoint: mean survival time, dose: 200.0 mg/kg/injection, schedule: Q04DX002 (ip), vehicle: saline) 0 of 3; (T/C endpoint: mean survival time, dose: 400.0 mg/kg/injection, schedule: Q04DX002 (ip), vehicle: saline) 0 of 3.
With `CC#CC(=O)SCCNC(=O)CCNC(=O)CC(C)(C)C`, under setting [4], the survivor count is listed as 2 of 6.
Turning to `c1ccc(C[Se]Cc2ccccc2)cc1`, the survivor count reads like this: (T/C endpoint: mean survival time, dose: 25.0 mg/kg/injection, schedule: Q01DX009 (ip), vehicle: other) 0 of 6; under setting [5], 0 of 6; (T/C endpoint: mean survival time, dose: 100.0 mg/kg/injection, schedule: Q01DX009 (ip), vehicle: other) 0 of 6; under setting [6], 0 of 6.
For `O=C(NC(=O)c1cn(C2OC(CO)C(O)C2O)nn1)Nc1ccc(Cl)cc1` (centres undefined), the survivor count was 6 of 6 (T/C endpoint: mean survival time, dose: 25.0 mg/kg/injection, schedule: Q01DX005 (ip), vehicle: other); 3 of 6 (T/C endpoint: mean survival time, dose: 100.0 mg/kg/injection, schedule: Q01DX005 (ip), vehicle: other); 0 of 6 (T/C endpoint: mean survival time, dose: 200.0 mg/kg/injection, schedule: Q01DX005 (ip), vehicle: other).
Consider `COc1ccc(OC)c(/C=C(/C#N)C(N)=O)c1`, for which the survivor count (T/C endpoint: mean survival time, dose: 100.0 mg/kg/injection, schedule: Q01DX001 (ip), vehicle: saline with Tween-80) is given as 6 of 6.
For the molecule `C[NH-].C[NH-].[Br][Pt+2][Br]`, the survivor count (T/C endpoint: mean survival time, dose: 20.0 mg/kg/injection, schedule: Q04DX003 (ip), vehicle: water) is listed as 10 of 10.
Regarding `Cn1c(=O)c2c(ncn2CCCNCC(O)c2ccc(O)c(O)c2)n(C)c1=O` (centres undefined), the survivor count (T/C endpoint: mean survival time, dose: 200.0 mg/kg/injection, schedule: Q01DX005 (ip), vehicle: water) is reported as 2 of 6.
As to `Oc1c(Cl)cc(Cl)cc1C=NCCSc1ccc(Cl)cc1`, the survivor count (T/C endpoint: median survival time, dose: 400.0 mg/kg/injection, schedule: Q01DX009 (ip), vehicle: Klucel (hydroxypropylcellulose) (HPC)) is recorded as 3 of 6.
`COc1cc(/C=N/NC(=O)CN(C)C)cc(OC)c1N(CCCl)CCCl`: the T/C under setting [7] was 125 % of control.
`CNC(=O)Nc1ccc(C(=O)NC(C)C)cc1`: the T/C under setting [5] is 132 % of control. In addition, where the note is “T/C endpoint: mean survival time, dose: 75.0 mg/kg/injection, schedule: Q01DX009 (ip), vehicle: other”, the survivor count is reported as 6 of 6.
Turning to `CC(C)(C)OC(=O)CCC(NC(=O)OCc1ccccc1)C(=O)O` (centres undefined), the survivor count by setting is: under setting [4], 3 of 6; (T/C endpoint: mean survival time, dose: 400.0 mg/kg/injection, schedule: Q01DX001 (ip), vehicle: saline sonified) 1 of 6.
With `C(#CC[P+](c1ccccc1)(c1ccccc1)c1ccccc1)C[P+](c1ccccc1)(c1ccccc1)c1ccccc1`, the survivor count is 0 of 6 under setting [7] and 0 of 6 (T/C endpoint: mean survival time, dose: 50.0 mg/kg/injection, schedule: Q01DX009 (ip), vehicle: Klucel (hydroxypropylcellulose) (HPC)).
With `Nc1nc2c(ncn2C2OC(CO)C(O)C2O)c(=O)[nH]1.Nc1nc2c(ncn2C2OC(CO)C(O)C2O)c(=O)[nH]1.[NH2-].[NH2-].[Pt+2]` (centres undefined), the T/C reads like this: (T/C endpoint: mean survival time, dose: 50.0 mg/kg/injection, schedule: Q01DX009 (ip), vehicle: water) 137 % of control; (T/C endpoint: mean survival time, dose: 100.0 mg/kg/injection, schedule: Q01DX009 (ip), vehicle: water) 136 % of control; (T/C endpoint: mean survival time, dose: 200.0 mg/kg/injection, schedule: Q01DX009 (ip), vehicle: water) 139 % of control.
In the case of `O=C(O)C(O)C(O)C(O)C(O)CO.O=C(O)C(O)C(O)C(O)C(O)CO.[NH-]C1CCCCC1[NH-].[Pt+2]` (centres undefined), the T/C is 127 % of control (T/C endpoint: mean survival time, dose: 6.25 mg/kg/injection, schedule: Q04DX003 (ip), vehicle: other); 139 % of control (T/C endpoint: mean survival time, dose: 6.25 mg/kg/injection, schedule: Q04DX003 (ip), vehicle: saline); 143 % of control (T/C endpoint: mean survival time, dose: 12.5 mg/kg/injection, schedule: Q04DX003 (ip), vehicle: other); 132 % of control (T/C endpoint: mean survival time, dose: 12.5 mg/kg/injection, schedule: Q04DX003 (ip), vehicle: saline); 148 % of control (T/C endpoint: mean survival time, dose: 25.0 mg/kg/injection, schedule: Q04DX003 (ip), vehicle: saline). Further, under setting [6], the survivor count is 9 of 10.
Take `COc1cc[n+](CCc2c[nH]c3ccccc23)cc1`: the survivor count by setting is: (T/C endpoint: mean survival time, dose: 100.0 mg/kg/injection, schedule: Q04DX003 (ip), vehicle: saline with Tween-80) 5 of 6; under setting [4], 2 of 6; under setting [3], 0 of 6.
`C=C1C(=O)OC2C1C(OC(=O)/C(=C/C)COC(C)=O)CC1(CO1)C1C(OC(=O)/C(=C/C)CO)C=C(C)C21` (centres undefined): the survivor count (T/C endpoint: mean survival time, dose: 200.0 mg/kg/injection, schedule: Q01DX001 (ip), vehicle: saline with Tween-80) is listed as 6 of 6.
On to `CCOC(=O)C1CN(Cc2ccccc2)CCC1=O` (centres undefined), for which the survivor count (T/C endpoint: mean survival time, dose: 400.0 mg/kg/injection, schedule: Q01DX009 (ip), vehicle: saline) is recorded as 2 of 6.

These data come from PubChem BioAssay AID256 (DTP/NCI, 2004).
